Measured values reported in the supplement of paper PMC10849652.
The list shows a part of the results. Residues, ends and D or L forms follow the SMILES beside them. *: point of attachment. Cbz = O=C(OCc1ccccc1)*

Chains of the proteins cited; added tags and fusions are not shown. Lines headed by an entry give the natural chain unless they say otherwise; changes in a name come on top.
UniProt P30043: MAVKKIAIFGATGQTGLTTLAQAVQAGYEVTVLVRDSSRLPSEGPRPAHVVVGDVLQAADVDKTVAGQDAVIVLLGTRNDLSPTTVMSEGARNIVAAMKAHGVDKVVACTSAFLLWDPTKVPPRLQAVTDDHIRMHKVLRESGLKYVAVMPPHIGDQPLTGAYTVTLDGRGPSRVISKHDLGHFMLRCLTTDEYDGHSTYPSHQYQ
UniProt Q6QNY0: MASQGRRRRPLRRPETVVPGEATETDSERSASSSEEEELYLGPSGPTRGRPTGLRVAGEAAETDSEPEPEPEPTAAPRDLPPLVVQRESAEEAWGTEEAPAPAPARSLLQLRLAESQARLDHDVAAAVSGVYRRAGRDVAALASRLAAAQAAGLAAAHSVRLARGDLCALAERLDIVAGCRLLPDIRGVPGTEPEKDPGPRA
UniProt Q4VC05, whole entry, looked up: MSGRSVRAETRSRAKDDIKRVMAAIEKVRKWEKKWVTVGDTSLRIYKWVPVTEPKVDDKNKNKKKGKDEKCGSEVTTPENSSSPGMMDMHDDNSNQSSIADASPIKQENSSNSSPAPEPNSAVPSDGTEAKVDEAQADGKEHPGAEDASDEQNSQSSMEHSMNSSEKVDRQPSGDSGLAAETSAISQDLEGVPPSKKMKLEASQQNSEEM
UniProt Q9H0E9, whole entry, looked up: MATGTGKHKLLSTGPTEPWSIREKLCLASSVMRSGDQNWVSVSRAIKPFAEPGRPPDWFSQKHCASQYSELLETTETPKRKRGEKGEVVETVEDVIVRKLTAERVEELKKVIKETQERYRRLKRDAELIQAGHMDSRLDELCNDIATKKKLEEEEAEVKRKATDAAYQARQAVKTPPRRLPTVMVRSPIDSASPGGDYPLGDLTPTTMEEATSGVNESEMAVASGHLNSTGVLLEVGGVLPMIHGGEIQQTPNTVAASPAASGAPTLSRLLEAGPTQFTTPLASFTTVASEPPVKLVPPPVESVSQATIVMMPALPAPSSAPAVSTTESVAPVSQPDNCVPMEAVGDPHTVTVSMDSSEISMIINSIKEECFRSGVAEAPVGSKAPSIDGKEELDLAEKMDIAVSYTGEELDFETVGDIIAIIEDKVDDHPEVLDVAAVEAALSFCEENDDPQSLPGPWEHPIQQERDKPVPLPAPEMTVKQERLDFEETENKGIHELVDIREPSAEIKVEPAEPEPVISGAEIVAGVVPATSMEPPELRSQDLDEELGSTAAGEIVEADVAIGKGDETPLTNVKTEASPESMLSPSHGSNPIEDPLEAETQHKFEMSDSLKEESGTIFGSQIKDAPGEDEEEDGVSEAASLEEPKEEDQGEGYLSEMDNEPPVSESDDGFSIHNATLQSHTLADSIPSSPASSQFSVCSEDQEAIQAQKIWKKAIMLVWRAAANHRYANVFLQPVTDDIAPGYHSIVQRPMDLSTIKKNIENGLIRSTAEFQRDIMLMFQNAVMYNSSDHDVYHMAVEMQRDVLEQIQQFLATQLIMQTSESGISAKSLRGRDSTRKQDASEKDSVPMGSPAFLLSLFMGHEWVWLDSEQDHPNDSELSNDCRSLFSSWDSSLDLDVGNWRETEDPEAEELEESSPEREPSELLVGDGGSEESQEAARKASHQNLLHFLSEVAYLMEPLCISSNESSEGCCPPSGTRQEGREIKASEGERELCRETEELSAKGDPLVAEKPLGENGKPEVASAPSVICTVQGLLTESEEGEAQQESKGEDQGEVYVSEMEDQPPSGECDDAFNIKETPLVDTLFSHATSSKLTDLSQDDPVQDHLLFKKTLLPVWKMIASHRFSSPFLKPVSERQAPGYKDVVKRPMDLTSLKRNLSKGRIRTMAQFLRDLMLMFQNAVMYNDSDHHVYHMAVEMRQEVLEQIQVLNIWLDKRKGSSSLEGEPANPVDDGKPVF
UniProt Q9UQB8: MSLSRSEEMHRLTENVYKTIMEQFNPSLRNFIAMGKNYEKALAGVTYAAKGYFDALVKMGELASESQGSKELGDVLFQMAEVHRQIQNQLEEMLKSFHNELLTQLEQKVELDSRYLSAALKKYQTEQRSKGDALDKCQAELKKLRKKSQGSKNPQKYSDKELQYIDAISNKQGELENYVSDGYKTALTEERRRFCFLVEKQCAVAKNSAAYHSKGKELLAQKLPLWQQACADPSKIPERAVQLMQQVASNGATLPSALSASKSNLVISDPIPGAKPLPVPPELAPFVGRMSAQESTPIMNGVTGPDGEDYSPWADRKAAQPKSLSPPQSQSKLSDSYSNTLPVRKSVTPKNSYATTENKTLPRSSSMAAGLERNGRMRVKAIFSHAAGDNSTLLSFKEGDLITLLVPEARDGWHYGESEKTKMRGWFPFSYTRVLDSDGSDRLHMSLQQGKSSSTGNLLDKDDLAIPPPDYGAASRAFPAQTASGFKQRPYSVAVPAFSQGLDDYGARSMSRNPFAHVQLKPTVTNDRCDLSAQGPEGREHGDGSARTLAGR
UniProt Q16611: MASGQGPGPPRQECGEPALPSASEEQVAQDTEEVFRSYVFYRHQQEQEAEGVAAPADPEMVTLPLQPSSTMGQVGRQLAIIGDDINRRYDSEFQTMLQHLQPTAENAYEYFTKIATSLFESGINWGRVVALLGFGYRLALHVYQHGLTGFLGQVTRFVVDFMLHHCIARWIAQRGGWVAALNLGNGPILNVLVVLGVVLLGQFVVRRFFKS
UniProt P61769, whole entry, looked up: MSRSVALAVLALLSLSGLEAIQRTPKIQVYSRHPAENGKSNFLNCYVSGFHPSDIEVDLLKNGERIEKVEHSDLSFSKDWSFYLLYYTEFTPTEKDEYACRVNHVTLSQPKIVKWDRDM
UniProt Q96B45: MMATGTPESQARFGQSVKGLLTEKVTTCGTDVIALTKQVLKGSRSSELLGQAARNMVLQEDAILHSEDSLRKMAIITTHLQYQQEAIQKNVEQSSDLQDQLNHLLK
UniProt Q86UU0: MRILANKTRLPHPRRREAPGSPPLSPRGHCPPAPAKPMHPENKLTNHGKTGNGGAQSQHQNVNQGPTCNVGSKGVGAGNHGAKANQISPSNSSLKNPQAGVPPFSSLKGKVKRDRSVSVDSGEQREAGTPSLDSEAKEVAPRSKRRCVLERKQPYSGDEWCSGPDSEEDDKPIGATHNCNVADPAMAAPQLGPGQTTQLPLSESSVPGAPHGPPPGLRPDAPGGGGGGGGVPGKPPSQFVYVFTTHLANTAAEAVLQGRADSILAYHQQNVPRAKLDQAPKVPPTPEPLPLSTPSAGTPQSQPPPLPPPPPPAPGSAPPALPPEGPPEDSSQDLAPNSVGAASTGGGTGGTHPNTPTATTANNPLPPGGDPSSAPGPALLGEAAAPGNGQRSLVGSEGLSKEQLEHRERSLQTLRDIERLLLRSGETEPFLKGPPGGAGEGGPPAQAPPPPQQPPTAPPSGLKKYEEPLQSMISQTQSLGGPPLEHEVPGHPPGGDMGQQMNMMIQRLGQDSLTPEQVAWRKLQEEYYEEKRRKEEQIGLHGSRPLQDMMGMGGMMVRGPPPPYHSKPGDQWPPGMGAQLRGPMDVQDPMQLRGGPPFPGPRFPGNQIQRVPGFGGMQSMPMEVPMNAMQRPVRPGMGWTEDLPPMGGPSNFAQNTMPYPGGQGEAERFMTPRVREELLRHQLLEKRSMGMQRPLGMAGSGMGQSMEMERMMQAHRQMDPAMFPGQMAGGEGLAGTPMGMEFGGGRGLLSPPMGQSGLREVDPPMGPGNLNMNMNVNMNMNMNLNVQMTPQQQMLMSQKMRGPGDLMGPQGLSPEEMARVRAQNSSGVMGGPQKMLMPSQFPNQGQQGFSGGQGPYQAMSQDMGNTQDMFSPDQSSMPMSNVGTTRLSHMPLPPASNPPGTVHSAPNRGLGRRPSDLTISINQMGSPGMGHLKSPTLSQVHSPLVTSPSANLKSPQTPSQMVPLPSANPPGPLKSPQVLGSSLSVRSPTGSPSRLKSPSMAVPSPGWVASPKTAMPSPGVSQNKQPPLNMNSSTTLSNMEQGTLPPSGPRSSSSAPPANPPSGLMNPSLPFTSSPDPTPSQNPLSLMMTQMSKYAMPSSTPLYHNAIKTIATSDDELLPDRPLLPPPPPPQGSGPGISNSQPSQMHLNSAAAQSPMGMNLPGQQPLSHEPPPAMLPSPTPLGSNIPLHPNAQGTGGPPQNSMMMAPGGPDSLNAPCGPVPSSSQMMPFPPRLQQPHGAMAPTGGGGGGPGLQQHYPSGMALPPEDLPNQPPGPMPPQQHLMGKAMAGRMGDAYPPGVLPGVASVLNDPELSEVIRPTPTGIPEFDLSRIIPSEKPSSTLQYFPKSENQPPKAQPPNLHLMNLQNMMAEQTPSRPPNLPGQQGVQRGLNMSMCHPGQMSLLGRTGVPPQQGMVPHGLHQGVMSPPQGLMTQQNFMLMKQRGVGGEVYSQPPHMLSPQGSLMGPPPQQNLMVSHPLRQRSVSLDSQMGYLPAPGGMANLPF
UniProt Q8WUW1: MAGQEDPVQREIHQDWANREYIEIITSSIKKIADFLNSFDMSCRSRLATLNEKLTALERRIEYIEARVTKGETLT
UniProt Q8TBE0: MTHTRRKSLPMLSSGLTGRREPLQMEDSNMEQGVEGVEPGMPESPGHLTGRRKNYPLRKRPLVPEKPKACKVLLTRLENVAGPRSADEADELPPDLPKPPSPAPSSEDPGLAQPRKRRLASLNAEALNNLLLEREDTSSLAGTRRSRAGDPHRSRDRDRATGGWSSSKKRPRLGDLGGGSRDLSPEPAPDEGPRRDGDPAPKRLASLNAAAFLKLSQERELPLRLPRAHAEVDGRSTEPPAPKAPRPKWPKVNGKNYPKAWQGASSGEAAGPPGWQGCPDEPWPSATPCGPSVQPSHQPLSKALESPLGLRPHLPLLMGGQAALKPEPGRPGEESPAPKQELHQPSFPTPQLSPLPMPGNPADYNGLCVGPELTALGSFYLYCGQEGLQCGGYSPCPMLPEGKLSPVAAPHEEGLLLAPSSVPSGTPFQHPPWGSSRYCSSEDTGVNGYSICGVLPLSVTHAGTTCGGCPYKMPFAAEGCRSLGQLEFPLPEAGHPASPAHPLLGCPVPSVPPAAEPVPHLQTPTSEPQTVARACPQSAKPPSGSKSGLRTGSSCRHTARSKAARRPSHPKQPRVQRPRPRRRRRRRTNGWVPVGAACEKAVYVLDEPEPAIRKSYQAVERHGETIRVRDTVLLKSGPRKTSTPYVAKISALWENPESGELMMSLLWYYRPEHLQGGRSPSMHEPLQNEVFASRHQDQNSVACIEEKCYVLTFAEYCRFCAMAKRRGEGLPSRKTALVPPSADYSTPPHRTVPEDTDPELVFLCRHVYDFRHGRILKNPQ
UniProt Q96L58: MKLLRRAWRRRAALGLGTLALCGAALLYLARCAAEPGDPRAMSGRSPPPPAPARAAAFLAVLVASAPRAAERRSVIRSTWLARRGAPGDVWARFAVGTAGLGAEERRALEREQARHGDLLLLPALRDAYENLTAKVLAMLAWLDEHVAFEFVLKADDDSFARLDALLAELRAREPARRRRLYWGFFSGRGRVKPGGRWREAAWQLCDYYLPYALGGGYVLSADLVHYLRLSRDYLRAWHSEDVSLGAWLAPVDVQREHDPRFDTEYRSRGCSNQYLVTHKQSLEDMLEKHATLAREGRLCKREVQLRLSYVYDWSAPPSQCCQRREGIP
UniProt O95415: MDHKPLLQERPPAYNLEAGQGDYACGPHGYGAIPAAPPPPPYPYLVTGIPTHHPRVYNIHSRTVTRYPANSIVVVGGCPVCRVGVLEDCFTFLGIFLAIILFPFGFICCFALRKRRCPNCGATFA
UniProt Q9HCU9: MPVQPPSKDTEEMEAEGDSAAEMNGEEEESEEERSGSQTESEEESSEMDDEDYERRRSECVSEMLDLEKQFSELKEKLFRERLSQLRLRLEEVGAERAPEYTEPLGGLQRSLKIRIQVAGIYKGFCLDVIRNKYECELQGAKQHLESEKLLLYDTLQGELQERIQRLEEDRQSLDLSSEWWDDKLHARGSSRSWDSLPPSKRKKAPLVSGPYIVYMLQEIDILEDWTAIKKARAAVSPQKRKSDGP

Experiments:
Assay in all cases: log2 fold change, soluble protein after heating vs DMSO (PISA); higher = thermal stabilisation; K562 cells, 10 uM, 30 min; active = over 0.2 and 3.5 SD of the protein, either way, in both replicates (recomputed)
erlotinib = compound: C#Cc1cccc(Nc2ncnc3cc(OCCOC)c(OCCOC)cc23)c1 [erlotinib]
Summary of the method: (§1)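 Soluble protein was quantified by TMTpro 16plex LC-MS/MS after channel sums were equalised. It was obtained as the supernatant after 21,000xg for 90 min from pooled aliquots of K562 cells (2×10^6 cells/mL, 10 μM compound, 30 min) heated for 3 min across 48°C-58°C and extracted in PBS with 0.5% NP-40 at 4°C. Thermal stability values are relative to control samples and come from duplicates. They are given as log2 fold changes.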

[1] = compound: C/C(=N\NC(=O)C1=CC(=CC=C1)S(=O)(=O)N2CCOCC2)/C3=C(C=CC(=C3)Cl)O
Summary of the method: as §1

[2] = compound: C1=CC(=C(C=C1Cl)C2=NC3=NC=CN=C3C(=N2)NC4=CC=NC=C4)F
Summary of the method: as §1

[3] = compound: C1=CC(=CC=C1C2=NC3=C(N2)C=C(C=C3)C(=O)N)OC4=CC=C(C=C4)Cl
Summary of the method: as §1

[4] = compound: C1=CC2=C(C=CC(=C2)/C=C\3/C(=O)NC(=NCC4=CC=CS4)S3)N=C1
Summary of the method: as §1

[5] = compound: C1=CC2=NC=CN=C2C=C1/C=C/3\C(=O)NC(=O)S3
Summary of the method: as §1

[6] = compound: C1=CC=C(C=C1)C2=NC(=C(N2)C3=CC=NC=C3)C4=CC(=C(C=C4)Cl)O
Summary of the method: as §1

[7] = compound: C1=CC=C2C(=C1)C3=NNC4=CC=CC(=C43)C2=O
Summary of the method: as §1

[8] = compound: C1CCN(C1)C(=O)NC2=CC=CC(=C2)NC3=NC=C(C(=N3)NCCC4=CN=CN4)Br
Summary of the method: as §1

[9] = compound: C1CN(CCC1(CC2=CC=C(C=C2)Cl)N)C3=NC=NC4=C3C=CN4
Summary of the method: as §1

IRAK-1-4 Inhibitor I = compound: C1COCCN1CCN2C3=CC=CC=C3N=C2NC(=O)C4=CC(=CC=C4)[N+](=O)[O-] [IRAK-1-4 Inhibitor I]
Summary of the method: as §1

ibrutinib = compound: C=CC(=O)N1CCC[C@@H](n2nc(-c3ccc(Oc4ccccc4)cc3)c3c(N)ncnc32)C1 [ibrutinib]
Summary of the method: as §1

[10] = compound: CC(=O)c1cnc2ccc(-c3cc(Cl)c(O)c(Cl)c3)nc2c1N[C@H]1CC[C@H](CN(C)C)CC1
Summary of the method: as §1

ralimetinib = compound: CC(C)(C)Cn1c(N)nc2ccc(-c3[nH]c(C(C)(C)C)nc3-c3ccc(F)cc3)nc21 [ralimetinib]
Summary of the method: as §1

[11] = compound: CC(C)(O)CC(=O)NCCn1ccc2ncnc(Nc3ccc(Oc4cccc(C(F)(F)F)c4)c(Cl)c3)c21
Summary of the method: as §1

[12] = compound: CC(C)C1=C2N=C(C=C(N2N=C1)NCC3=CC=CC=C3)NCCCCCCN
Summary of the method: as §1

[13] = compound: CC(C)C[C@@H](C=O)NC(=O)[C@H](CC(C)C)NC(=O)[C@H](CC(C)C)NC(=O)OCc1ccccc1
Summary of the method: as §1

pinometostat = compound: CC(C)N(C[C@H]1O[C@@H](n2cnc3c(N)ncnc32)[C@H](O)[C@@H]1O)[C@H]1C[C@@H](CCc2nc3cc(C(C)(C)C)ccc3[nH]2)C1 [pinometostat]
Summary of the method: as §1

[14] = compound: CC1=C(C2=C(C=C1)C(=O)C3=CC=CC=C3N2CCCN)C
Summary of the method: as §1

[15] = compound: CC1=C(C(CC(=O)N1)C2=CC=C(C=C2)C(F)(F)F)C(=O)NC3=C(C=C4C(=C3)C=NN4)F
Summary of the method: as §1

Measured: log2 fold change

BLVRB (UniProt P30043)
active: [2] 0.237
inactive: erlotinib 0.03 | [1] 0.112 | [3] -0.031 | [4] -0.015 | [5] 0.072 | [6] 0.042 | [7] 0.014 | [8] 0.001 | [9] 0.056 | IRAK-1-4 Inhibitor I 0.075 | ibrutinib 0.037 | [10] 0.154 | ralimetinib 0.056 | [11] -0.019 | [12] -0.048 | [13] -0.037 | pinometostat -0.005 | [14] 0.059

BLOC1S3 (UniProt Q6QNY0)
inactive: erlotinib 0.027 | [1] -0.009 | [2] 0.04 | [3] -0.003 | [4] 0.093 | [5] 0.012 | [6] 0.031 | [7] -0.052 | [8] -0.032 | [9] 0.052 | IRAK-1-4 Inhibitor I 0.018 | ibrutinib -0.037 | ralimetinib -0.033 | [11] -0.058 | [12] 0.005 | [13] -0.045 | pinometostat -0.041 | [14] 0.076
active: [10] 0.427

BCL7A isoform 2 (UniProt Q4VC05)
inactive: erlotinib -0.059 | [1] 0 | [2] -0.191 | [3] 0.026 | [4] -0.043 | [7] 0.03 | [8] 0.038 | [9] -0.007 | [10] -0.011 | [11] 0.167 | [12] 0.045 | [14] -0.014

BRD8 isoform 2 (UniProt Q9H0E9)
inactive: erlotinib 0.157 | [1] 0.016 | [2] 0.029 | [3] 0.082 | [4] 0.035 | [5] 0.055 | [6] -0.152 | [7] -0.044 | [8] -0.027 | [9] 0.021 | IRAK-1-4 Inhibitor I 0.028 | ibrutinib 0 | [10] 0.036 | ralimetinib -0.103 | [11] 0.021 | [12] -0.003 | [13] 0.093 | pinometostat 0.01 | [14] -0.071

BAIAP2 (UniProt Q9UQB8)
active: [10] -0.265
inactive: erlotinib 0.033 | [1] 0.089 | [2] 0.012 | [3] -0.008 | [4] 0.018 | [5] 0.017 | [6] 0.014 | [7] -0.063 | [8] -0.101 | [9] -0.016 | IRAK-1-4 Inhibitor I -0.016 | ibrutinib -0.032 | ralimetinib -0.034 | [11] -0.033 | [12] -0.056 | [13] 0.062 | pinometostat 0 | [14] 0.041

BAK1 (UniProt Q16611)
inactive: erlotinib -0.015 | [1] 0.047 | [2] 0.143 | [3] 0.011 | [4] 0.008 | [5] 0.137 | [7] 0.084 | [8] -0.04 | [9] 0.027 | IRAK-1-4 Inhibitor I 0.021 | ibrutinib 0.097 | [10] -0.209 | [11] -0.018 | [12] -0.063 | pinometostat 0.048 | [15] 0.011 | [14] 0.154

BRD8 (UniProt Q9H0E9)
inactive: erlotinib -0.057 | [1] -0.036 | [2] -0.067 | [3] 0.068 | [4] -0.005 | [5] 0.037 | [6] -0.074 | [7] -0.064 | [8] 0.016 | [9] -0.058 | IRAK-1-4 Inhibitor I 0 | ibrutinib -0.014 | [10] -0.009 | ralimetinib -0.022 | [11] -0.012 | [12] -0.013 | [13] 0.098 | pinometostat 0.001 | [14] -0.019

B2M (UniProt P61769)
inactive: erlotinib -0.049 | [1] 0.03 | [2] -0.008 | [3] -0.073 | [4] 0.065 | [5] 0.001 | [6] 0.029 | [7] -0.048 | [8] -0.099 | [9] -0.02 | ibrutinib -0.002 | [10] 0.015 | ralimetinib -0.025 | [11] -0.016 | [12] 0.026 | [13] -0.048 | [15] -0.01 | [14] 0.146

BLVRA (UniProt C9J1E1)
inactive: erlotinib 1.14 | [1] -0.151 | [3] -0.133 | [4] 0.287 | [5] -0.02 | [7] -0.375 | IRAK-1-4 Inhibitor I 0.252 | ibrutinib -0.05 | [10] -0.143 | [12] 0.012 | pinometostat 0.063 | [15] -0.172

BORCS7 (UniProt Q96B45)
inactive: erlotinib 0.061 | [1] 0.033 | [3] 0.024 | [4] 0.136 | [5] 0.059 | [7] 0.01 | [8] -0.053 | [9] 0.132 | IRAK-1-4 Inhibitor I -0.008 | ibrutinib -0.014 | [10] -0.165 | [12] 0.093 | pinometostat -0.067 | [15] 0.089 | [14] -0.007

BRIP1 (UniProt Q9BX63)
active: [14] 0.333
inactive: erlotinib -0.009 | [1] 0.076 | [2] -0.153 | [3] 0.018 | [4] 0.075 | [5] -0.082 | [6] -0.048 | [7] 0.023 | [8] -0.064 | [9] -0.045 | IRAK-1-4 Inhibitor I 0.017 | ibrutinib 0.12 | [10] -0.073 | ralimetinib 0.006 | [11] 0.039 | [12] -0.036 | [13] -0.064 | pinometostat 0.084

B4GALT7 (UniProt Q9UBV7)
inactive: erlotinib 0.111 | [1] -0.007 | [2] 0.021 | [3] -0.02 | [4] 0.157 | [5] -0.079 | [6] 0.039 | [7] -0.018 | [8] 0.002 | [9] 0.025 | IRAK-1-4 Inhibitor I -0.046 | ibrutinib 0.131 | [10] 0.069 | ralimetinib 0.088 | [11] -0.014 | [12] -0.012 | [13] -0.004 | pinometostat -0.033 | [14] 0.066

BCL9L (UniProt Q86UU0)
inactive: erlotinib 0.01 | [1] -0.256 | [2] -0.008 | [3] 0.049 | [4] 0.036 | [5] -0.048 | [6] -0.128 | [7] 0.07 | [8] -0.052 | [9] 0.091 | IRAK-1-4 Inhibitor I -0.045 | ibrutinib 0 | [10] 0.04 | ralimetinib -0.024 | [11] -0.009 | [12] 0.015 | [13] 0.092 | pinometostat 0.013 | [14] 0.101

BRK1 isoform 2 (UniProt Q8WUW1)
inactive: erlotinib -0.115 | [1] 0.003 | [2] 0.279 | [3] 0.04 | [4] 0.027 | [5] 0.072 | [6] 0.051 | [7] -0.02 | [8] -0.08 | [9] -0.037 | IRAK-1-4 Inhibitor I -0.026 | ibrutinib -0.004 | [10] -0.045 | ralimetinib -0.037 | [11] -0.018 | [12] 0.058 | [13] -0.053 | pinometostat -0.157 | [14] 0.145

BAHD1 (UniProt Q8TBE0)
inactive: erlotinib 0.063 | [3] 0.019 | [12] -0.013 | [15] 0.067

B3GALT6 (UniProt Q96L58)
inactive: erlotinib -0.269 | [3] -0.106 | [6] -0.113 | IRAK-1-4 Inhibitor I 0.016 | ralimetinib 0.064 | [12] 0.221 | [13] 0.055 | pinometostat 0.082

BRI3 (UniProt O95415)
inactive: [5] -0.23 | ibrutinib -0.22

Taken from above (two entries):
BRK1 isoform 2 (UniProt Q8WUW1)
inactive: erlotinib -0.115 | [1] 0.003 | [2] 0.279 | [3] 0.04 | [4] 0.027 | [5] 0.072 | [6] 0.051 | [7] -0.02 | [8] -0.08 | [9] -0.037 | IRAK-1-4 Inhibitor I -0.026 | ibrutinib -0.004 | [10] -0.045 | ralimetinib -0.037 | [11] -0.018 | [12] 0.058 | [13] -0.053 | pinometostat -0.157 | [14] 0.145

BAHD1 (UniProt Q8TBE0)
inactive: erlotinib 0.063 | [3] 0.019 | [12] -0.013 | [15] 0.067

Carrying on:

BPNT1 (UniProt A6NF51)
inactive: erlotinib 0.023 | [2] -0.051 | [3] -0.077 | [5] 0.162 | [6] 0.023 | [8] -0.045 | [9] -0.042 | IRAK-1-4 Inhibitor I 0 | ibrutinib 0.244 | ralimetinib 0.099 | [11] -0.031 | [12] 0.114 | [13] -0.125 | pinometostat 0.044 | [14] -0.043

BRMS1 (UniProt Q9HCU9)
inactive: [2] 0.075 | [4] 0.09 | [7] -0.041 | [8] 0.024 | [9] 0.119 | [10] 0.055 | [11] -0.002 | [14] -0.014
active: [1] -0.656
